# Assay results: paper PMC5996148
# Where “and” joins values, the source holds several entries; their conditions need not be identical. Equal entries are not always repeated. The list shows a part of the results.
# Assays:
# Assay in all cases: protein microarray (ProtoArray v5.0), streptavidin-Alexa Fluor 647
# Details in all cases: 3'-biotin; 20 mM Tris (pH 7.5), 5 mM MgCl2, 100 mM KCl, 0.1% Tween-20, A/T-rich and random oligonucleotide blockers; temperature not stated; high values mean tight binding
# [1] = system: HBG1 (human)
# [2] = system: HBG2 (human)
# [3] = system: HBZ (human)
# [4] = system: HCCS (human)
# [5] = system: HCG3 (human)
# [6] = system: HCRTR2 (human)
# [7] = system: HDHD2 (human)
# [8] = system: HDHD3 (human)
# [9] = system: HEBP1 (human)
# [10] = system: HEL308 (human)
sequence,measurement,setting,value
GGGAGGCTGAGGCAGG [G4-1 biotinylated (PQS2)],binding signal,[1],-0.377 z-score and -0.337 z-score
same,binding signal,[2],-0.337 z-score
same,binding signal,[3],-0.36 z-score
same,binding signal,[4],-0.336 z-score
same,binding signal,[5],-0.355 z-score
same,binding signal,[6],-0.283 z-score
same,binding signal,[7],-0.25 z-score
same,binding signal,[8],-0.34 z-score
same,binding signal,[9],-0.34 z-score
same,binding signal,[10],-0.351 z-score

# A run of entries from further up, for reference:
sequence,measurement,setting,value
GGGAGGCTGAGGCAGG [G4-1 biotinylated (PQS2)],binding signal,[7],-0.25 z-score
same,binding signal,[8],-0.34 z-score
